Common to all, as to experiment: cryo-EM structure
For test [1], the target named is T1, QcrB, cytochrome b subunit of complex III (Corynebacterium glutamicum) (UniProt Q79VE9).
T1 sequence: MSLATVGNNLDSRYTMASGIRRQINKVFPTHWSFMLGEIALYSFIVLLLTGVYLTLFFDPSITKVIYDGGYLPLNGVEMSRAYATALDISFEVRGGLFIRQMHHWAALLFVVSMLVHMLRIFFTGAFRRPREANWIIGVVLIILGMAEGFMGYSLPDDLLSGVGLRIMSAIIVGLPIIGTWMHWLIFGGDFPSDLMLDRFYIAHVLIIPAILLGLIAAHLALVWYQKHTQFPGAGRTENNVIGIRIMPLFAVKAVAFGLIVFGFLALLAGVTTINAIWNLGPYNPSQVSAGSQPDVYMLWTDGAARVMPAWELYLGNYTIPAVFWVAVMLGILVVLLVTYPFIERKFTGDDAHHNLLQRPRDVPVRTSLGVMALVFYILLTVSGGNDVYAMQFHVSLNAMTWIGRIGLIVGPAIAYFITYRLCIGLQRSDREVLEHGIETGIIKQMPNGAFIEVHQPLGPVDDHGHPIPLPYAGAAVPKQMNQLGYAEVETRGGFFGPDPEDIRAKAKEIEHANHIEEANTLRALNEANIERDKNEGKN

Test [2] deals with T2, CtaF, subunit of complex IV (Corynebacterium glutamicum) (UniProt Q8NNK3).
T2 sequence: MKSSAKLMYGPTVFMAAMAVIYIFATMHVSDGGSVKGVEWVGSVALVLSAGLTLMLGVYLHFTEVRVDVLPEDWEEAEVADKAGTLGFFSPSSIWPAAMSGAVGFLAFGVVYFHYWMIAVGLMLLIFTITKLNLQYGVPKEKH

Test [3] has as its target T3, CtaE, subunit of complex IV (Corynebacterium glutamicum) (UniProt Q9AEL8).
T3 sequence: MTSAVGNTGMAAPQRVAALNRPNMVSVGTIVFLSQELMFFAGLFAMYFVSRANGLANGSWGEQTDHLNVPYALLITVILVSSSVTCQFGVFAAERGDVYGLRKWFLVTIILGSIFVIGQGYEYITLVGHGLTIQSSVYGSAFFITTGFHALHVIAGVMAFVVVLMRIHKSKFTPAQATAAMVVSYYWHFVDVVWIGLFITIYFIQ

Test [4] concerns the target T4, CtaD with Strep-tag, subunit I homologue of complex IV (Corynebacterium glutamicum) (UniProt Q79VD7).
T4 sequence: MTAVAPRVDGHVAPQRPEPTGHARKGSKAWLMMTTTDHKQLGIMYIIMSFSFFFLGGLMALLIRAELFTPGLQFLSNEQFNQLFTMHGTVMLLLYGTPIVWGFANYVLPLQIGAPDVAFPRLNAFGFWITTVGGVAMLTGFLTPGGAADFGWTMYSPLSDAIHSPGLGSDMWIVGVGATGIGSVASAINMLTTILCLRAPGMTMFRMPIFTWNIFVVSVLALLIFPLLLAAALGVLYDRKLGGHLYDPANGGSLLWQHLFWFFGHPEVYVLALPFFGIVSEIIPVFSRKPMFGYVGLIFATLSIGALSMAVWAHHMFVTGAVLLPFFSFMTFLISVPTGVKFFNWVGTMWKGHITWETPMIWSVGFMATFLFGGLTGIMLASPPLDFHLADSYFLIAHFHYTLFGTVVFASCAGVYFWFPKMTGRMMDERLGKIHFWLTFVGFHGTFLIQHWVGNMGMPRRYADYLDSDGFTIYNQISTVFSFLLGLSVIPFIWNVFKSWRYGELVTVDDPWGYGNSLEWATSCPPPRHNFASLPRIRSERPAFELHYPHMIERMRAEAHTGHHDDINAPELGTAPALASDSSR

No constants are given. Whether binding was seen depends on the method and setting. Binding can be weak; no strength is given. For some of these results: Tags and fused reporters may be left off the sequences shown.

Turning to AscC (Corynebacterium glutamicum), the binding entry in test [1], in test [2] and in test [3] was “binds” in each case.
Consider AscB (from UniProt Q8NSJ8), for which, in test [4], the binding entry is on record as “binds”.

Source of the values: doi:10.1101/2021.06.16.448340 (bioRxiv, 2021).
